This continues a long series; more values of the same kind are listed elsewhere.
Tested on: gene expression in heart tissue
Assay: Genome-wide gene expression in heart tissue of old mice fed a resveratrol-supplemented diet (Affymetrix Mouse Genome 430 2.0 array)
Type: in vivo

## Oc1ccc(/C=C/c2cc(O)cc(O)c2)cc1 [resveratrol, 3,4′,5-Trihydroxy-trans-stilbene]
1449024_a_at hexosaminidase A
  Effect of resveratrol on changeing gene expression from old to young profile: 70-80%
1449065_at cytosolic acyl-CoA thioesterase 1
  Effect of resveratrol on changeing gene expression from old to young profile: 90-100%
1449117_at Jun proto-oncogene related gene d1
  Effect of resveratrol on changeing gene expression from old to young profile: >100%
1449137_at pyruvate dehydrogenase E1 alpha 1
  Effect of resveratrol on changeing gene expression from old to young profile: 60-70%
1449341_a_at erythrocyte protein band 7.2
  Effect of resveratrol on changeing gene expression from old to young profile: <60%
1449349_at nudix (nucleoside diphosphate linked moiety X)-type motif 1
  Effect of resveratrol on changeing gene expression from old to young profile: >100%
1449503_at karyopherin (importin) alpha 1
  Effect of resveratrol on changeing gene expression from old to young profile: 90-100%
1449514_at G protein-coupled receptor kinase 5
  Effect of resveratrol on changeing gene expression from old to young profile: 80-90%
1449573_at expressed sequence AW319487
  Effect of resveratrol on changeing gene expression from old to young profile: >100%
1449574_a_at cell division cycle 42 homolog (S. cerevisiae)
  Effect of resveratrol on changeing gene expression from old to young profile: >100%
1449635_at DNA segment, Chr 19, Wayne State University 55, expressed
  Effect of resveratrol on changeing gene expression from old to young profile: >100%
1449928_at t-complex-associated-testis-expressed 1-like
  Effect of resveratrol on changeing gene expression from old to young profile: 90-100%
1450006_at nuclear receptor coactivator 4
  Effect of resveratrol on changeing gene expression from old to young profile: <60%
1450010_at hydroxysteroid (17-beta) dehydrogenase 12
  Effect of resveratrol on changeing gene expression from old to young profile: 90-100%
1450016_at cyclin G1
  Effect of resveratrol on changeing gene expression from old to young profile: 70-80%
1450017_at cyclin G1
  Effect of resveratrol on changeing gene expression from old to young profile: 60-70%
1450191_a_at SRY-box containing gene 13
  Effect of resveratrol on changeing gene expression from old to young profile: >100%
1450351_a_at restin (Reed-Steinberg cell-expressed intermediate filament-associated protein)
  Effect of resveratrol on changeing gene expression from old to young profile: 60-70%
1450385_at karyopherin (importin) alpha 3
  Effect of resveratrol on changeing gene expression from old to young profile: <60%
1450396_at stromal antigen 2
  Effect of resveratrol on changeing gene expression from old to young profile: 70-80%
1450416_at chromobox homolog 5 (Drosophila HP1a)
  Effect of resveratrol on changeing gene expression from old to young profile: 80-90%
1450462_at corticotropin releasing hormone receptor 2
  Effect of resveratrol on changeing gene expression from old to young profile: 70-80%
1450699_at selenium binding protein 1
  Effect of resveratrol on changeing gene expression from old to young profile: >100%
1450724_at down-regulated by Ctnnb1, a
  Effect of resveratrol on changeing gene expression from old to young profile: >100%
1450759_at bone morphogenetic protein 6
  Effect of resveratrol on changeing gene expression from old to young profile: >100%
1450777_at 5′-3′ exoribonuclease 2
  Effect of resveratrol on changeing gene expression from old to young profile: >100%
1450839_at DNA segment, human D4S114
  Effect of resveratrol on changeing gene expression from old to young profile: 90-100%
1450846_at basic leucine zipper and W2 domains 1
  Effect of resveratrol on changeing gene expression from old to young profile: 80-90%
1450853_at transducin-like enhancer of split 4, homolog of Drosophila E(spl)
  Effect of resveratrol on changeing gene expression from old to young profile: 80-90%
1450890_a_at abl-interactor 1
  Effect of resveratrol on changeing gene expression from old to young profile: >100%
1450908_at eukaryotic translation initiation factor 4E
  Effect of resveratrol on changeing gene expression from old to young profile: >100%
1450917_at myomesin 2
  Effect of resveratrol on changeing gene expression from old to young profile: >100%
1450957_a_at sequestosome 1
  Effect of resveratrol on changeing gene expression from old to young profile: >100%
1450958_at transmembrane 4 superfamily member 1
  Effect of resveratrol on changeing gene expression from old to young profile: >100%
1450974_at tissue inhibitor of metalloproteinase 4
  Effect of resveratrol on changeing gene expression from old to young profile: >100%
1450997_at serine/threonine kinase 17b (apoptosis-inducing)
  Effect of resveratrol on changeing gene expression from old to young profile: 90-100%
1451047_at integral membrane protein 2A
  Effect of resveratrol on changeing gene expression from old to young profile: 80-90%
1451072_a_at ring finger protein 4 [BLAST]
  Effect of resveratrol on changeing gene expression from old to young profile: 70-80%
1451109_a_at neural precursor cell expressed, developmentally down-regulted gene 4
  Effect of resveratrol on changeing gene expression from old to young profile: <60%
1451124_at superoxide dismutase 1, soluble
  Effect of resveratrol on changeing gene expression from old to young profile: 90-100%
1451168_a_at Rho GDP dissociation inhibitor (GDI) alpha
  Effect of resveratrol on changeing gene expression from old to young profile: >100%
1451229_at histone deacetylase 11
  Effect of resveratrol on changeing gene expression from old to young profile: >100%
1451295_a_at chromodomain helicase DNA binding protein 4
  Effect of resveratrol on changeing gene expression from old to young profile: >100%
1451336_at lectin, galactose binding, soluble 4
  Effect of resveratrol on changeing gene expression from old to young profile: 90-100%
1451345_at methylthioadenosine phosphorylase
  Effect of resveratrol on changeing gene expression from old to young profile: <60%
1451350_a_at leptin receptor gene-related protein
  Effect of resveratrol on changeing gene expression from old to young profile: >100%
1451422_at myosin XVIIIa
  Effect of resveratrol on changeing gene expression from old to young profile: >100%
1451457_at sterol-C5-desaturase (fungal ERG3, delta-5-desaturase) homolog (S. cerevisae)
  Effect of resveratrol on changeing gene expression from old to young profile: >100%
1451519_at ring finger protein 2
  Effect of resveratrol on changeing gene expression from old to young profile: >100%
1451586_at testis enhanced gene transcript
  Effect of resveratrol on changeing gene expression from old to young profile: >100%
1451726_at myotubularin related protein 6
  Effect of resveratrol on changeing gene expression from old to young profile: 80-90%
1451825_a_at coatomer protein complex, subunit zeta 1
  Effect of resveratrol on changeing gene expression from old to young profile: >100%
1451871_a_at growth hormone receptor
  Effect of resveratrol on changeing gene expression from old to young profile: <60%
1452011_a_at UDP-glucuronate decarboxylase 1
  Effect of resveratrol on changeing gene expression from old to young profile: 60-70%
1452044_at actin related protein 2/3 complex, subunit 5-like
  Effect of resveratrol on changeing gene expression from old to young profile: 90-100%
1452156_a_at nischarin
  Effect of resveratrol on changeing gene expression from old to young profile: 80-90%
1452157_at glutamyl-prolyl-tRNA synthetase
  Effect of resveratrol on changeing gene expression from old to young profile: 80-90%
1452207_at Cbp/p300-interacting transactivator, with Glu/Asp-rich carboxy-terminal domain, 2
  Effect of resveratrol on changeing gene expression from old to young profile: 60-70%
1452298_a_at Mus musculus similar to myosin homolog, brain - mouse (LOC383411), mRNA
  Effect of resveratrol on changeing gene expression from old to young profile: >100%
1452433_at No description found
  Effect of resveratrol on changeing gene expression from old to young profile: <60%

— patent US20090247646A1, “USE OF RESVERATROL AND DERIVATIVES THEREOF FOR PROMOTING THE WELLNESS STATE IN MAMMALS” (priority 2006, published 2009)
